Results are given in words; binding and its absence hold for the method and conditions named. Binding calls can cover weak binding; strength is not graded here. For some assays here: In cells and extracts the contact can be indirect.
Columns and labels:
[1] = target: His-tagged ImuB (wildtype) (Mycobacterium smegmatis) (UniProt A0QSW0); assay: SEC; IMAC eluate of coexpressed His-ImuB variants and Strep-VFP–ImuAʹ injected on a Superdex 200 increase 2.4 ml column, 50 mM Tris pH 8.5, 300 mM NaCl, 1 mM DTT; the fraction at the elution volume of the complex (~1.6 ml) analysed by SDS-PAGE and VFP fluorescence; both purified
[2] = target: His-tagged ImuB (wildtype) (Mycobacterium smegmatis) (UniProt A0QSW0); assay: pull-down; IMAC pull-down after coexpression of His-ImuB variants with Strep-VFP–ImuAʹ in E. coli: clarified extract incubated with nickel beads, eluted with 500 mM imidazole; amount of ImuB loaded normalised; SDS-PAGE imaged at 532 nm for VFP

The chains behind the UniProt entries cited, without tags or fusion partners. Where a name states a change or a piece, a line headed by the entry shows the natural chain unless it says otherwise.
UniProt A0QSW0: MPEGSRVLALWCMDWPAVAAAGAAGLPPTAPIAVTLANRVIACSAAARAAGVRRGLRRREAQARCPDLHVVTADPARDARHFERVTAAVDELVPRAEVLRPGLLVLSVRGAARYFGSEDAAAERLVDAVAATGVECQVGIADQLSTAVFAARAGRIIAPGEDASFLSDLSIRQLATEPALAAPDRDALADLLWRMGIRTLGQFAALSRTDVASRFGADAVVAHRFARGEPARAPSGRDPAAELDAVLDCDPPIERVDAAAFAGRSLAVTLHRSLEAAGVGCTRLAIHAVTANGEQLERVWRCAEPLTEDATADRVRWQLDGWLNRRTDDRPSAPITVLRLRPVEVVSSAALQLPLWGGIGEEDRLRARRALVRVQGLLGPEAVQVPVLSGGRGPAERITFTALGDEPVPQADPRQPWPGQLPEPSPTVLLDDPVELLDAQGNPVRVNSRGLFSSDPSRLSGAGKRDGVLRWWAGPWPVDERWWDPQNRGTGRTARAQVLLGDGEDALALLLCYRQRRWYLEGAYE
UniProt A0QSV9: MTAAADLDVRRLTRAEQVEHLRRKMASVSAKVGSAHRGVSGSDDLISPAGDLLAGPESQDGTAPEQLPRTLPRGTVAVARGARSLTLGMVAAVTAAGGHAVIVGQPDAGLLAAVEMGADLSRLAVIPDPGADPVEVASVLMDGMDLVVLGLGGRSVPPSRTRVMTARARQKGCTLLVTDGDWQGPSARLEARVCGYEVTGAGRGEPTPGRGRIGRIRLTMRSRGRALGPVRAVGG

For “Strep-VFP-tagged ImuAʹ (from UniProt A0QSV9)”, the binding [1] was “binds” and the binding [2] was “binds”.

— article PMC11791113
